{
  "source": "PubChem BioAssay AID504444",
  "about": "(National Center for Advancing Translational Sciences (NCATS), 2011)",
  "note": "Screen size: about 360,000 compounds; about 7,500 (2.1%) were called active. The shares of active, inactive and inconclusive entries below differ from those in the screen. Calls come from the whole dose curve; as a rule, active = well fitted inhibition curve with a large enough effect; inconclusive = small, poorly fitted or top-dose-only effect, or effect the other way; inactive = flat fitted curve, though single readings scatter. Potencies beside an inconclusive call are fits to weak or partial responses and may not hold up. % is set by controls: 0 for no effect and ±100 for the full control effect; potency is the fitted concentration of half-maximal effect.",
  "data": [
    {"assay": "Nrf2 qHTS screen for inhibitors; note: nearly all actives have a fitted effect of over 60% in size", "settings": "A549 ARE-Fluc reporter, luciferase luminescence, 18-24 h; activity change, negative = inhibition: at 46 µM (top of the series)", "procedure,_shortened": "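Reporter: ARE-Fluc in A549. Exposure: 18-24 h, 37 °C, 5% CO2, 5% FBS OPTI-MEM. Readouts: fluorescent cytotoxicity (CellTiter-Fluor), then luminescent Nrf2 signal after BugLite.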", "values": [
      {"smiles": "O=C1C=C(N2CCCCC2)c2ccccc2C1=O", "Potency": "active: 9.2 µM"},
      {"smiles": "O=C(COC(=O)/C=C/c1ccccc1)NNC(=O)c1ccccc1F", "Potency": "inconclusive: 32.6 µM [activator, partial curve, poor fit]"},
      {"smiles": "COc1cc(OC)cc(-c2cc3ccc(F)cc3cn2)c1", "Potency": "inconclusive: 16.4 µM [activator, partial curve]"},
      {"smiles": "Cc1cc2c3nonc3ccc2n1-c1ccccc1", "Potency": "inconclusive: 29.1 µM [falling, single point]"},
      {"smiles": "CC(C)C[C@H](NC(=O)c1nc[nH]c1C(=O)NCc1ccc(CNC(=O)OC(C)(C)C)cc1)C(=O)OC(C)(C)C", "Potency": "inconclusive: 29.1 µM [falling, single point]"},
      {"smiles": "CCNC(=S)N1CCN(S(=O)(=O)c2ccc(Cl)s2)CC1", "Potency": "inconclusive: 29.1 µM [falling, single point]"},
      {"smiles": "Cc1ccccc1-n1nnnc1SCc1ncc(-c2ccccc2)o1", "activity change, negative = inhibition": "inactive: -8.44%"},
      {"smiles": "CC(C(=O)NCc1ccccc1Cl)n1ccc2cc(S(=O)(=O)N3CCCCC3)ccc21", "note": "(stereo not drawn)", "Potency": "inconclusive: 16.4 µM [falling, single point]"},
      {"smiles": "CC(=O)c1c(C)[nH]c(C(=O)Nc2cccc(C)n2)c1C", "Potency": "inconclusive: 0.731 µM [activator, partial curve]"},
      {"smiles": "Cc1csc(SCC(=O)Nc2sc3c(c2C#N)CCC3)n1", "activity change, negative = inhibition": "inactive: -21.8%"},
      {"smiles": "COCCN=C1NN=C(c2cc(C)n(CC3CCCO3)c2C)CS1", "note": "(stereo not drawn)", "Potency": "inconclusive: 1.46 µM [activator, full curve]"},
      {"smiles": "CCCCCCCNC1=CC(=O)CC(c2ccccc2)C1", "note": "(stereo not drawn)", "Potency": "inconclusive: 20.6 µM [falling, single point]"},
      {"smiles": "CCC1CCCCN1C(=O)COC(=O)c1cc2ccccc2cc1O", "note": "(stereo not drawn)", "Potency": "inconclusive: 4.11 µM [activator, full curve, poor fit]"},
      {"smiles": "Cc1[nH]nc2ncc(C(=O)c3ccccc3O)cc12", "Potency": "inconclusive: 18.4 µM [falling, partial curve]"},
      {"smiles": "O=C(Oc1ccc(Cl)c2cccnc12)N1CCOCC1", "activity change, negative = inhibition": "inactive: -2.45%"},
      {"smiles": "COc1ccc(C2/C=C\\CN(C(=O)c3ccc(C)cc3)C(Cc3ccccc3)C(=O)N2Cc2ccc(F)cc2)cc1", "note": "(stereo not drawn)", "Potency": "inconclusive: 8.2 µM [falling, partial curve, poor fit]"},
      {"smiles": "Cc1ccc(C(=O)CN(C(=O)c2ccc(Cl)c(Cl)c2)N2C(=O)C3C4C=CC(C4)C3C2=O)cc1", "note": "(stereo not drawn)", "Potency": "inconclusive: 29.1 µM [falling, single point]"},
      {"smiles": "CCCn1c(N)c(C(=O)CSc2nnc(Cc3cccs3)n2C2CC2)c(=O)n(C)c1=O", "Potency": "active: 11.6 µM"},
      {"smiles": "COC(=O)c1ccc(NC(=O)CSc2nnc(COc3ccc4c(c3)CCCC4)o2)cc1", "activity change, negative = inhibition": "inactive: -21.6%"},
      {"smiles": "CC(=Nc1ccc(C)cc1)c1sc2ccccc2c1O", "Potency": "inconclusive: 0.259 µM [activator, full curve]"},
      {"smiles": "CC1CC=CC2C1C(=O)N(Cc1ccccc1)C2c1ccc2ccccc2c1C=Cc1ccccc1", "note": "(stereo not drawn)", "Potency": "inconclusive: 20.6 µM [falling, single point]"},
      {"smiles": "CC(C)(C)OC(=O)NC(Cc1ccccc1)C(O)c1ccco1", "note": "(stereo not drawn)", "activity change, negative = inhibition": "inactive: 15.3%"},
      {"smiles": "C=CCNC(=S)N/N=C(\\C)c1cc(OC)c(OC)c(OC)c1", "Potency": "inconclusive: 4.11 µM [falling, partial curve]"},
      {"smiles": "COc1ccc(NC(=O)c2ccc(F)cc2)cc1S(=O)(=O)Nc1cc(C)ccc1Br", "Potency": "inconclusive: 14.6 µM [falling, single point]"},
      {"smiles": "COc1cccc(CCNC(=O)Cn2c(-c3cccs3)cc3ccccc32)c1", "activity change, negative = inhibition": "inactive: -22%"},
      {"smiles": "CN(c1ccc(C(=O)N/N=C/c2cccc([N+](=O)[O-])c2)cc1)S(=O)(=O)c1ccccc1", "Potency": "inconclusive: 18.4 µM [falling, single point]"},
      {"smiles": "O=c1cc(CO)oc(C(Nc2ccccn2)c2ccc(C(F)(F)F)cc2)c1O", "note": "(stereo not drawn)", "activity change, negative = inhibition": "inactive: 14%"},
      {"smiles": "Cc1nn(S(=O)(=O)c2cccs2)c(C)c1Sc1ccc([N+](=O)[O-])cc1", "Potency": "inconclusive: 29.1 µM [falling, single point]"},
      {"smiles": "Cc1csc2c(=O)sc(NC(=O)c3ccc(F)cc3)nc12", "activity change, negative = inhibition": "inactive: 4.52%"},
      {"smiles": "COc1ccc(C(=O)C[n+]2ccc3c(c2)nc(-c2ccccc2)n3C)cc1", "activity change, negative = inhibition": "inactive: 3.19%"},
      {"smiles": "Cn1nccc1C(=O)Nc1ccc(OC(=O)c2ccnn2C)cc1", "Potency": "inconclusive: 6.51 µM [falling, single point]"},
      {"smiles": "CCN(CC)CCn1c(NCc2ccc(OC)cc2)nc2ccccc21", "Potency": "inconclusive: 18.4 µM [falling, partial curve, poor fit]"},
      {"smiles": "Cc1ccc(NC(=O)c2cnccn2)cc1", "Potency": "inconclusive: 5.8 µM [activator, full curve]"},
      {"smiles": "Cc1ccc(C)c(N2CCN(C(=O)Nc3cn(CC(C)C)c(=O)c4ccccc34)CC2)c1", "Potency": "inconclusive: 29.1 µM [falling, single point]"},
      {"smiles": "CCOc1cc(NC(=O)c2ccccn2)c(OCC)cc1NC(=O)c1ccc(C)cc1", "Potency": "inconclusive: 6.51 µM [falling, partial curve, poor fit]"},
      {"smiles": "CCN(CC)CCN(C(=O)c1ccc(C(=O)c2ccccc2)cc1)c1nc2cc3c(cc2s1)OCO3", "activity change, negative = inhibition": "inactive: -8.11%"},
      {"smiles": "CCc1nnc(NC(=O)c2ccc(S(=O)(=O)N(CC)Cc3ccccc3)cc2)o1", "Potency": "active: 20.6 µM"},
      {"smiles": "O=C(c1ccccc1Br)N(Cc1ccco1)C1CCS(=O)(=O)C1", "note": "(stereo not drawn)", "activity change, negative = inhibition": "inactive: 21.3%"},
      {"smiles": "CC(C)(C)C(=O)NC(=S)NNC(=O)c1sc2ccccc2c1Cl", "Potency": "active: 5.8 µM"},
      {"smiles": "Fc1ccc(-[n+]2nc(Nc3ccccc3)sc2-c2c(Cl)cccc2Cl)cc1", "Potency": "inconclusive: 18.4 µM [falling, partial curve, poor fit]"},
      {"smiles": "O=C(c1ccc2c(c1)N(Cc1ccccc1)C(=O)c1ccccc1S2(=O)=O)N1CCCC1", "activity change, negative = inhibition": "inactive: -12.5%"},
      {"smiles": "CNc1oc(-c2ccc(C)cc2)nc1P(=O)(c1ccccc1)c1ccccc1", "Potency": "inconclusive: 23.1 µM [falling, single point]"},
      {"smiles": "COc1ccc(-c2cc(=O)oc3c(C)c(OC(C)C(C)=O)ccc23)cc1", "note": "(stereo not drawn)", "Potency": "inconclusive: 20.6 µM [falling, partial curve]"},
      {"smiles": "CCN(CC)S(=O)(=O)c1cccc(-c2nnc(SC(C)C(=O)NCCC3=CCCCC3)o2)c1", "note": "(stereo not drawn)", "Potency": "inconclusive: 29.1 µM [falling, single point]"},
      {"smiles": "CC(=O)Cn1nnc2sc3c(c2c1=O)CCC(C(C)(C)C)C3", "note": "(stereo not drawn)", "Potency": "inconclusive: 6.51 µM [activator, partial curve]"},
      {"smiles": "O=C1NC(=O)C(c2ccccc2)(c2ccc(Cl)cc2Cl)N1", "note": "(stereo not drawn)", "Potency": "inconclusive: 0.184 µM [activator, full curve, poor fit]"},
      {"smiles": "COc1ccccc1OCC(=O)N1CCC2(CC1)CC(=O)c1ccccc1O2", "activity change, negative = inhibition": "inactive: 9.61%"},
      {"smiles": "CCOC(=O)c1cc(-c2ccc(C)cc2)n(CCC(=O)Nc2nc3c(C)cccc3s2)c1C", "Potency": "inconclusive: 29.1 µM [falling, single point]"},
      {"smiles": "Cc1ccc(/C=N/NC(=O)Cn2cnc3ccccc32)o1", "Potency": "inconclusive: 18.4 µM [falling, partial curve]"},
      {"smiles": "Cc1ccc2c(c1)c(=O)c1ccccc1n2CCCC(=O)Nc1ccc(C)c(F)c1", "Potency": "inconclusive: 6.51 µM [activator, single point]"},
      {"smiles": "CN1C(=O)/C(=C/c2ccc(OCc3cccc(F)c3)cc2)NC1=S", "Potency": "inconclusive: 29.1 µM [falling, single point]"},
      {"smiles": "CCN(CC)C(=S)SCC(=O)Nc1nc(-c2ccccc2)c(-c2ccccc2)o1", "Potency": "inconclusive: 23.1 µM [falling, single point]"},
      {"smiles": "COc1cccc(Cn2c(=O)n(CC3CCC(C(=O)N4CCCCC4)CC3)c(=O)c3sccc32)c1", "note": "(stereo not drawn)", "Potency": "inconclusive: 13 µM [falling, partial curve, poor fit]"},
      {"smiles": "Cc1c(CC(=O)N2CCN(C(=O)C3COc4ccccc4O3)CC2)c(=O)oc2cc(O)c(Cl)cc12", "note": "(stereo not drawn)", "Potency": "active: 23.1 µM"},
      {"smiles": "COc1cc(OC)cc(C2=NC3(CCC(C)CC3)NC2=S)c1", "note": "(stereo not drawn)", "Potency": "inconclusive: 18.4 µM [falling, single point]"},
      {"smiles": "O=[N+]([O-])c1ccc(NCc2ccccn2)nc1", "Potency": "inconclusive: 20.6 µM [activator, single point]"},
      {"smiles": "Cc1cccc2cc3c(N)c(C(=O)Nc4ccc(N5CCOCC5)cc4)sc3nc12", "Potency": "active: 23.1 µM"},
      {"smiles": "CSc1nc2ccc(NC(=O)c3cc4ccccc4o3)cc2s1", "Potency": "inconclusive: 29.1 µM [activator, partial curve]"},
      {"smiles": "CC(C)(C)c1ccc(C(=O)NCCOc2ccccc2)cc1", "Potency": "inconclusive: 0.731 µM [activator, full curve]"},
      {"smiles": "Clc1nc2ccccc2cc1-c1nnn(-c2ccccc2)n1", "Potency": "inconclusive: 16.4 µM [activator, partial curve]"},
      {"smiles": "Clc1ccc2c(c1)c1cc(Cl)ccc1n2CN1CCOCC1", "Potency": "inconclusive: 25.9 µM [falling, single point]"},
      {"smiles": "Cn1[nH]c(-c2ccccc2)c(/C=N/O)c1=O", "Potency": "inconclusive: 29.1 µM [activator, single point]"},
      {"smiles": "O=C(Nc1cccnc1)c1ccc(COc2cc(Cl)ccc2Cl)o1", "Potency": "inconclusive: 29.1 µM [falling, single point]"},
      {"smiles": "COc1cc(OC)nc(-n2ncc(Br)c(Br)c2=O)n1", "Potency": "inconclusive: 18.4 µM [falling, single point]"},
      {"smiles": "COc1ccccc1Nc1nc(-c2cccc([N+](=O)[O-])c2)cs1", "Potency": "inconclusive: 18.4 µM [activator, partial curve, poor fit]"},
      {"smiles": "CCc1nnc(NC(=O)CSc2nnc(CNc3ccc(Cl)cc3)o2)s1", "Potency": "inconclusive: 25.9 µM [falling, single point]"},
      {"smiles": "COC(=O)Cn1cnc2c(C#N)c3n(c2c1=O)CCCC3", "activity change, negative = inhibition": "inactive: 11.2%"},
      {"smiles": "CC(=O)NC(=S)Nc1ccc(S(=O)(=O)N(C)Cc2ccccc2)cc1", "Potency": "inconclusive: 18.4 µM [falling, single point]"}
    ]}
  ]
}
